We go through 38 targets from the supplement of paper PMC6411743.

The chains behind the UniProt entries cited, without tags or fusion partners. Where a name states a change or a piece, a line headed by the entry shows the natural chain unless it says otherwise.
UniProt C4AMC7: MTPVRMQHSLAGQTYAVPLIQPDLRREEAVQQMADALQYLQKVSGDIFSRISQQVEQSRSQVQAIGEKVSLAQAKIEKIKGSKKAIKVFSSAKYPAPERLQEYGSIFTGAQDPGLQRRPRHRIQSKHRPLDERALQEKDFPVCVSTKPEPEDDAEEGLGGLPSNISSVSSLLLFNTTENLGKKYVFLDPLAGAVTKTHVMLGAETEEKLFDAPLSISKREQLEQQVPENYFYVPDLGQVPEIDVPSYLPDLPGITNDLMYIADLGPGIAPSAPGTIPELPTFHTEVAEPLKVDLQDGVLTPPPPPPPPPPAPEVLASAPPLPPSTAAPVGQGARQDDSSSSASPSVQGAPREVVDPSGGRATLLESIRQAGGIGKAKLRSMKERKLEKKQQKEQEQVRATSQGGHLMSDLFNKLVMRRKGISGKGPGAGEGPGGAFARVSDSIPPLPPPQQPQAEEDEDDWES
UniProt Q5T8I9: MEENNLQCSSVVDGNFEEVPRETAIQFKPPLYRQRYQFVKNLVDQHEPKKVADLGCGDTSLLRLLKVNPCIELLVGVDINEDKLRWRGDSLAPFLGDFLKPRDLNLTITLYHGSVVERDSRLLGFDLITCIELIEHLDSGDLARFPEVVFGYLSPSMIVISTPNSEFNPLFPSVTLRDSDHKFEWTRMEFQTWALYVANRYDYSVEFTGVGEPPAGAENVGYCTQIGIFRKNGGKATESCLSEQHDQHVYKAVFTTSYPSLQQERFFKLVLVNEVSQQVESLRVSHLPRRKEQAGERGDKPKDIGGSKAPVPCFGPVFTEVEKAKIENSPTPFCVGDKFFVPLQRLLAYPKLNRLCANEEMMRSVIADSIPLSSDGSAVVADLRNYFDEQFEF
UniProt Q9H3P2, whole entry: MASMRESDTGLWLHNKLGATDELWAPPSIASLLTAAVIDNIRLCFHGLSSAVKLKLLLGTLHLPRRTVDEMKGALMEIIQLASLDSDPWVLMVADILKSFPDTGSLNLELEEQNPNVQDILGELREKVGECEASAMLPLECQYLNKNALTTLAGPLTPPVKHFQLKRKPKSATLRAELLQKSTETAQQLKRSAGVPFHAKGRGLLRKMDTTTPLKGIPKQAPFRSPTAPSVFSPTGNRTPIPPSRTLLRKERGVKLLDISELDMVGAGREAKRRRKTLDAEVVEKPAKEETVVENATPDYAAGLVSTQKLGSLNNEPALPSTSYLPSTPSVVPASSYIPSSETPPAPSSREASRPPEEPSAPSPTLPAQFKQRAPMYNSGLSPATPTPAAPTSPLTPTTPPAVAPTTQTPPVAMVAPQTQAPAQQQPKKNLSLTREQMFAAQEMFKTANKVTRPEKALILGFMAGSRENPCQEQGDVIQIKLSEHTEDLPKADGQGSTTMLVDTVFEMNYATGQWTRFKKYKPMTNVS
UniProt Q8NEL9: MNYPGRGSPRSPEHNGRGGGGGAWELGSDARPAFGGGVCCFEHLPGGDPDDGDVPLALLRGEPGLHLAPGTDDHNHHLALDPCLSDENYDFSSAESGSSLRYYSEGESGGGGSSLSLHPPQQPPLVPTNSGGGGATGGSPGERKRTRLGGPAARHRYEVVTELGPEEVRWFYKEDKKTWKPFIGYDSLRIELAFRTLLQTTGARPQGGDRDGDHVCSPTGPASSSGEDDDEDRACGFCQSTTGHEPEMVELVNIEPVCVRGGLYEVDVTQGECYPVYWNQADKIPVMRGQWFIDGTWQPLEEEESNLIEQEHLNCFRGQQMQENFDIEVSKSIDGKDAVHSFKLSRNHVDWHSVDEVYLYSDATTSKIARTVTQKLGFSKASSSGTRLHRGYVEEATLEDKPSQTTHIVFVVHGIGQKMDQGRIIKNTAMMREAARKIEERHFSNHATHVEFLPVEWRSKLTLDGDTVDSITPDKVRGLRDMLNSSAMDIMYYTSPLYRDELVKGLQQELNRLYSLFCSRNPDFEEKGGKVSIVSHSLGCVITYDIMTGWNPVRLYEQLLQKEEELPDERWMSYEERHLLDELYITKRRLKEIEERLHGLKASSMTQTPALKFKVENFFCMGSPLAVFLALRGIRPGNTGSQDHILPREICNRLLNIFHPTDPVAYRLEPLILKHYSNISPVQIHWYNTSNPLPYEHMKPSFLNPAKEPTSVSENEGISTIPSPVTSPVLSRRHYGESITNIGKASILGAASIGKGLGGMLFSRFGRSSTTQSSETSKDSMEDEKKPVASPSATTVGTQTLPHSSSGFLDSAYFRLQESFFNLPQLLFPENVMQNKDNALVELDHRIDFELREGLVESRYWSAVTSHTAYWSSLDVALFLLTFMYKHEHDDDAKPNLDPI
UniProt Q03518, whole entry: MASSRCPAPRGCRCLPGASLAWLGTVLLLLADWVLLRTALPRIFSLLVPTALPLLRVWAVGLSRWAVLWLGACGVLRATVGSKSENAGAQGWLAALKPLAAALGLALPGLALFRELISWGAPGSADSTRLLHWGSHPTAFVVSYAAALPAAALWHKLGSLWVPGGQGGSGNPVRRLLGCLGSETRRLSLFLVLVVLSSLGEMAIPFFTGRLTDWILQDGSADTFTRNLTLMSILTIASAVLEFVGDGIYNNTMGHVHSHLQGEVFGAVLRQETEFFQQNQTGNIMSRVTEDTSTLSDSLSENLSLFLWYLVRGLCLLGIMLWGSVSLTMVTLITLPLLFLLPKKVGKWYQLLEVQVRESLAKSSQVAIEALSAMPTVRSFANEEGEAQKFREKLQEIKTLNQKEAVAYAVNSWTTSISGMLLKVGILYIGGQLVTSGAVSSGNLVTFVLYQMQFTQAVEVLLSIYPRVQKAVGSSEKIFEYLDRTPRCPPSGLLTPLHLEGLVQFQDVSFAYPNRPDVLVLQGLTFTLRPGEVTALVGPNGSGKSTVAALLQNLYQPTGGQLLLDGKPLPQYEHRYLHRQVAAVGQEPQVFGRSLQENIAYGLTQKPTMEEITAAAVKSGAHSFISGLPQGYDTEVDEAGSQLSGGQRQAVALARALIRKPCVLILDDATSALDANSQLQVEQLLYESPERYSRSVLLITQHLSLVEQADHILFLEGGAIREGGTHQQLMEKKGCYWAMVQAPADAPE
UniProt Q92614: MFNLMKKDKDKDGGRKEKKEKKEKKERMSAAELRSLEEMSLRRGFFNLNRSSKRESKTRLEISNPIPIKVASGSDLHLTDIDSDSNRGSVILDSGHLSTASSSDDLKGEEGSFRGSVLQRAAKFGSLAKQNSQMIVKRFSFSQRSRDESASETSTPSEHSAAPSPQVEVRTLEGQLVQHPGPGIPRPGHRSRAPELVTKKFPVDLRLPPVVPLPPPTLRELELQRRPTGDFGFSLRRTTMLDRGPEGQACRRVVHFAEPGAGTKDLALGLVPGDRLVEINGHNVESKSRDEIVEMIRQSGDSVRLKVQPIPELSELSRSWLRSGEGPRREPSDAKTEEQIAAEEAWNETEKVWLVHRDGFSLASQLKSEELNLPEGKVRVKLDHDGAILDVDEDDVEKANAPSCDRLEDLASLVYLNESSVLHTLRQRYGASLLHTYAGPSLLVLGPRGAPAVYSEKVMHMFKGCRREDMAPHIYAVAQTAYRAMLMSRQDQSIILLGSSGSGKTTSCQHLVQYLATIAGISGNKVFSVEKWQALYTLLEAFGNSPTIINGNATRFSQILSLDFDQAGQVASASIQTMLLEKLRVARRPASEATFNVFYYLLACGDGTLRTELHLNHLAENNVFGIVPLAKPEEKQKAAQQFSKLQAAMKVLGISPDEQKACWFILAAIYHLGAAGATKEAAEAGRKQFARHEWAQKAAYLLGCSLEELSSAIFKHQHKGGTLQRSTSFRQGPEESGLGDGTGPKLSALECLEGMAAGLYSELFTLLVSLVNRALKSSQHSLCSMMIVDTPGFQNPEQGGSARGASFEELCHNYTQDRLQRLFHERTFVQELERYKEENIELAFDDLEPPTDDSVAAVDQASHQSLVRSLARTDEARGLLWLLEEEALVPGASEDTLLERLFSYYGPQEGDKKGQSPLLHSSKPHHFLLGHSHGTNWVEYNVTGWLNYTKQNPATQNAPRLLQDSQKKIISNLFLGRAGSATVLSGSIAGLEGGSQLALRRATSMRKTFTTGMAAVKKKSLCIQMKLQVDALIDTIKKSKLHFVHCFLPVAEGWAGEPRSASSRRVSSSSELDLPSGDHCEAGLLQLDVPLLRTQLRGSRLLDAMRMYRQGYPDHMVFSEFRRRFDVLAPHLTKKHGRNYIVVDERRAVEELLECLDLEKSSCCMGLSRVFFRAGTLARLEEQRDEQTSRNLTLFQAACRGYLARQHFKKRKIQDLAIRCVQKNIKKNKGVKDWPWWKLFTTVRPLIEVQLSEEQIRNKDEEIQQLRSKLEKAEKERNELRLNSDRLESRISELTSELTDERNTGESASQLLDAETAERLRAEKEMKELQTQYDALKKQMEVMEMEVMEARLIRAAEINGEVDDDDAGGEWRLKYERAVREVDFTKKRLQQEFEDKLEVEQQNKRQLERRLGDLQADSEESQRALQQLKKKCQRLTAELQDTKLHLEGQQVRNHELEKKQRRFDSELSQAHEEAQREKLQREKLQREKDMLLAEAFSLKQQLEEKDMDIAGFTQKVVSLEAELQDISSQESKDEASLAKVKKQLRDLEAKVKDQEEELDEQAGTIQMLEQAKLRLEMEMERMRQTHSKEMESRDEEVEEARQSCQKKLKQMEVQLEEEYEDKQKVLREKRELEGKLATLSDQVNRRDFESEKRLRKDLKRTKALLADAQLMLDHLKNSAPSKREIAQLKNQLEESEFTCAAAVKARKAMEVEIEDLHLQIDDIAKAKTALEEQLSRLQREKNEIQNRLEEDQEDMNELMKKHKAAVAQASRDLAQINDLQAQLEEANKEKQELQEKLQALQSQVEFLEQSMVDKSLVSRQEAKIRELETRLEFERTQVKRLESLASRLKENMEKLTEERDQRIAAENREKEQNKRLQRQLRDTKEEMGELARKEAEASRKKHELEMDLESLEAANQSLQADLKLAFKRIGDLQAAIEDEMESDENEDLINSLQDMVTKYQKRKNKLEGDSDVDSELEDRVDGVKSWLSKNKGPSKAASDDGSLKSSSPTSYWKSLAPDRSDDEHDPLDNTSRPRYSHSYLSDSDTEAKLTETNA
UniProt Q5T7M9: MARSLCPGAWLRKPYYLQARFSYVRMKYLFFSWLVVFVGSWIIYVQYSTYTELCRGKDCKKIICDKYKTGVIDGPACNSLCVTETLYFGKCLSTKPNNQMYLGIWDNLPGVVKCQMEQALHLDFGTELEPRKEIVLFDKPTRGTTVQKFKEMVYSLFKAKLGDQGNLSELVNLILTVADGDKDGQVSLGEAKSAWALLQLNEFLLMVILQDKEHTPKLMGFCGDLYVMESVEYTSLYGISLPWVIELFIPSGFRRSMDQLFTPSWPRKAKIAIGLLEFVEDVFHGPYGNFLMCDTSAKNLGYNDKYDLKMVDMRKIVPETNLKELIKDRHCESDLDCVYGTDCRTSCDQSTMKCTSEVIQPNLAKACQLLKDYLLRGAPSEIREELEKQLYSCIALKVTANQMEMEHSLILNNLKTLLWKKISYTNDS
UniProt P39656: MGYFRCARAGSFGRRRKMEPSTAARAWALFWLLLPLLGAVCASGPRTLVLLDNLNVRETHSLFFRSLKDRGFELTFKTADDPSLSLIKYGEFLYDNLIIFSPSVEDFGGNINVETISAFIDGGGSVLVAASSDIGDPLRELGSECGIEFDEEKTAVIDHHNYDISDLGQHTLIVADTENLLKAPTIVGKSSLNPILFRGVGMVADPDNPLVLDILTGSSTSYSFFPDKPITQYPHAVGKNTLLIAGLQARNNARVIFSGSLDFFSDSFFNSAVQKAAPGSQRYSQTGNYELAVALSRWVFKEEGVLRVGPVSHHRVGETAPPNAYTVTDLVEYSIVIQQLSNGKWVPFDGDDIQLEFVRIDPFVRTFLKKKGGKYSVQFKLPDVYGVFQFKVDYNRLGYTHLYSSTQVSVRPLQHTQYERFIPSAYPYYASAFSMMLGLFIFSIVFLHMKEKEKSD
UniProt Q9UHJ6: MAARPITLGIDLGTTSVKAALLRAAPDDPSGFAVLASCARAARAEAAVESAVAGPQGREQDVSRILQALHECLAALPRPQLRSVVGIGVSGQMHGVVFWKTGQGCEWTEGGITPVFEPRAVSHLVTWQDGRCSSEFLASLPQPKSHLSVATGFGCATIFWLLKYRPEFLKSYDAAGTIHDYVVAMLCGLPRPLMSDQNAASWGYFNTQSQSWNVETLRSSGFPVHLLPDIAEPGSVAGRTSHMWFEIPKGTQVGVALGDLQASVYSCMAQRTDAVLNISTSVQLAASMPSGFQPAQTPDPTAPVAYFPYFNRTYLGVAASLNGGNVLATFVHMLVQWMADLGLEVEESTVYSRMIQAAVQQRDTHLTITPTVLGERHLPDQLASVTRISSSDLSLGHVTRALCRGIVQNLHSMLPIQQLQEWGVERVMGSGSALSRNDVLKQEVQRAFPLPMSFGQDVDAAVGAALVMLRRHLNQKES

± gives the standard deviation of the averaged measurements. Some of the results follow.

Compound in the first assay: Nc1nc2c(ncn2[C@@H]2O[C@H](COP(=O)(O)OP(=O)(O)OP(=O)(O)O)[C@@H](O)[C@H]2O)c(=O)[nH]1 [guanosine triphosphate]
The assay is described as follows: NP40-soluble protein abundance relative to vehicle (solubility fold change) (ratio); higher = more soluble protein in presence of GTP. Conditions: concentration: 6mM. Summed up:
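Values are fold changes against the detergent-processed vehicle, based on vsn-normalised intensities. Jurkat crude lysate was treated at eight concentrations from 0.1 to 10 mM (10 min at room temperature, then 3 min at 37 °C), solubilised with 0.8% NP40 and benzonase, ultracentrifuged and analysed by TMT-labelled LC-MS/MS over three independent experiments.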
As to “A0A096LP75|C4AMC7 and related entries (UniProt Q6VEQ5+C4AMC7)”, the NP40-soluble protein abundance was 1.062 ± 0.0092.
On to A0A140T9R1|O75955 (UniProt O75955), for which the NP40-soluble protein abundance was found to be 1.19 ± 0.29.
Still for that read-out and setting: the value for “A0A0A0MQS0|A8MW92 and related entries (UniProt A8MW92)” was 1.51 ± 0.036.
As to A0A0C4DGT4|Q643R3 (UniProt Q643R3), the NP40-soluble protein abundance was determined as 0.895 ± 0.032.
Same read-out and setting: the value for A0A0C4DGV9|P49917 (UniProt P49917) was 1.29 ± 0.23; that for “A0A087X127|E7EWM3 and related entries (UniProt Q8NF64)” was 0.957 ± 0.12.
Still for that read-out and setting: the value for CCDC88B (UniProt A6NC98) was 0.958 ± 0.034; that for “A0A0A0MRC4|A0A0A0MSK4|Q86YR5 and related entries (UniProt Q86YR5)” was 0.919 ± 0.064.
“A0A087WZ62|Q9H6U8 and related entries (UniProt Q9H6U8)”: the NP40-soluble protein abundance came out at 0.955 ± 0.11.
Consider “A0A0D9SFR6|Q86XP1 and related entries (UniProt Q86XP1)”, for which the NP40-soluble protein abundance was determined as 0.981 ± 0.14.
On to A0A087WXN9|Q765P7 (UniProt Q765P7), for which the NP40-soluble protein abundance was determined as 0.989 ± 0.22.
Same read-out and setting: the value for “A0A5E8 and related entries (UniProt Q99501)” was 1.37 ± 0.075; that for “A0A0A6YYC7|Q96JP5 and related entries (UniProt Q96JP5)” was 0.962 ± 0.065.
On the same count and under the same terms, the value for A0A0A0MRN1|Q5T8I9 (UniProt Q5T8I9) was 0.943 ± 0.012; that for UniProt A2RTX5 and related entries was 1.31 ± 0.16.
Turning to “A0A0A0MRE5|Q9ULH1 and related entries (UniProt Q9ULH1)”, the NP40-soluble protein abundance came to 1.04 ± 0.07.
On the same count and under the same terms, the same measure for “A0A0A0MQU0|K7EIR0 and related entries (UniProt Q9BV38)”: 1.023 ± 0.0084.
Same read-out and setting: the same measure for “A6NCC9 and related entries (UniProt Q9Y5U2)”: 1.14 ± 0.028; for A0A096LPA2|P30566 (UniProt P30566): 0.883 ± 0.06.
With “A0A0A0MS45|J3KNI1 and related entries (UniProt Q9H9E3)”, the NP40-soluble protein abundance came to 1.04 ± 0.053.
Still for that read-out and setting: the value for A0A0C4DFX9|Q9H3P2 (UniProt Q9H3P2) was 0.974 ± 0.059; that for “A0A087X0H7|Q8NEL9 and related entries (UniProt Q8NEL9)” was 0.936 ± 0.024.
The same measure, in the same setting: the value for A0A140T9T7|Q03518 (UniProt Q03518) was 1.06 ± 0.063; that for “A0A0D9SFK2|Q92614 and related entries (UniProt Q92614)” was 1.01 ± 0.069.
For the target UniProt A3KMH1 and related entries, the NP40-soluble protein abundance is 1.01 ± 0.12.
Still for that read-out and setting: the value for “A0A0A0MSQ0|H7C4N2 and related entries (UniProt P13797)” was 0.941 ± 0.095.
The same measure, in the same setting: the same measure for A0A0X1KG71|Q8WX92 (UniProt Q8WX92): 0.96 ± 0.012; for “A0A0C4DGS5|Q08379 and related entries (UniProt Q08379)”: 0.976 ± 0.09; for “A0A087WZ97|A0A087WZK6|A0A087X2C2|Q5T7M9 (UniProt Q5T7M9)”: 0.947 ± 0.065.
The same measure, in the same setting: the same measure for A0A087WYB4|Q9UJZ1 (UniProt Q9UJZ1): 1.04 ± 0.07; for “A0A087X0R0|F5H6S1 and related entries (UniProt O15550)”: 1.09 ± 0.093; for A0A0C4DGS1|P39656 (UniProt P39656): 0.915 ± 0.067.
Take “A0A087WXC5|E7ESZ7 and related entries (UniProt O95299)”: the NP40-soluble protein abundance is 1.05 ± 0.083.
Regarding A0A0B4J2A0|Q9UHJ6 (UniProt Q9UHJ6), the NP40-soluble protein abundance was 0.964 ± 0.045.
Still for that read-out and setting: the same measure for A0A0C4DGH6|A0JNW5 (UniProt A0JNW5): 0.888 ± 0.12; for “A0A0A0MQT4|Q5QP82 and related entries (UniProt Q5QP82)”: 0.97 ± 0.038.
Still for that read-out and setting: the value for “A0A0G2JLB3|A0A0G2JNZ5|P04062 and related entries (UniProt P04062)” was 0.922 ± 0.11; that for UniProt A5PLN9 and related entries was 0.951 ± 0.041.

Staying with this assay, now noted: concentration: 8mM.
With “A0A096LP75|C4AMC7 and related entries (UniProt Q6VEQ5+C4AMC7)”, the NP40-soluble protein abundance came to 1.03 ± 0.13.
With A0A140T9R1|O75955 (UniProt O75955), the NP40-soluble protein abundance amounted to 1.27 ± 0.28.
For “A0A0A0MQS0|A8MW92 and related entries (UniProt A8MW92)”, the NP40-soluble protein abundance was 1.49 ± 0.15.
Still for that read-out and setting: the value for A0A0C4DGT4|Q643R3 (UniProt Q643R3) was 0.9199 ± 0.0058.
A0A0C4DGV9|P49917 (UniProt P49917): the NP40-soluble protein abundance was determined as 1.24 ± 0.16.
In the case of “A0A087X127|E7EWM3 and related entries (UniProt Q8NF64)”, the NP40-soluble protein abundance was determined as 0.948 ± 0.078.
On the same count and under the same terms, the same measure for CCDC88B (UniProt A6NC98): 1 ± 0.075.
Still for that read-out and setting: the same measure for “A0A0A0MRC4|A0A0A0MSK4|Q86YR5 and related entries (UniProt Q86YR5)”: 0.9032 ± 0.0076; for “A0A087WZ62|Q9H6U8 and related entries (UniProt Q9H6U8)”: 0.92 ± 0.095; for “A0A0D9SFR6|Q86XP1 and related entries (UniProt Q86XP1)”: 1.01 ± 0.094.
On to A0A087WXN9|Q765P7 (UniProt Q765P7), for which the NP40-soluble protein abundance came out at 1.03 ± 0.11.
Turning to “A0A5E8 and related entries (UniProt Q99501)”, the NP40-soluble protein abundance amounted to 1.46 ± 0.035.
Take “A0A0A6YYC7|Q96JP5 and related entries (UniProt Q96JP5)”: the NP40-soluble protein abundance was 0.913 ± 0.024.
As to A0A0A0MRN1|Q5T8I9 (UniProt Q5T8I9), the NP40-soluble protein abundance was found to be 0.879 ± 0.015.
Same read-out and setting: the same measure for UniProt A2RTX5 and related entries: 1.31 ± 0.086; for “A0A0A0MRE5|Q9ULH1 and related entries (UniProt Q9ULH1)”: 1.03 ± 0.055.
For “A0A0A0MQU0|K7EIR0 and related entries (UniProt Q9BV38)”, the NP40-soluble protein abundance stood at 0.953 ± 0.047.
On the same count and under the same terms, the value for “A6NCC9 and related entries (UniProt Q9Y5U2)” was 1.22 ± 0.13; that for A0A096LPA2|P30566 (UniProt P30566) was 0.8542 ± 0.0037.
Still for that read-out and setting: the value for “A0A0A0MS45|J3KNI1 and related entries (UniProt Q9H9E3)” was 0.999 ± 0.041; that for A0A0C4DFX9|Q9H3P2 (UniProt Q9H3P2) was 0.988 ± 0.035.
Still for that read-out and setting: the value for “A0A087X0H7|Q8NEL9 and related entries (UniProt Q8NEL9)” was 0.96 ± 0.14; that for A0A140T9T7|Q03518 (UniProt Q03518) was 1.08 ± 0.03.
Consider “A0A0D9SFK2|Q92614 and related entries (UniProt Q92614)”, for which the NP40-soluble protein abundance stood at 1.04 ± 0.11.
For UniProt A3KMH1 and related entries, the NP40-soluble protein abundance came out at 1.01 ± 0.086.
In the case of “A0A0A0MSQ0|H7C4N2 and related entries (UniProt P13797)”, the NP40-soluble protein abundance was 0.943 ± 0.09.
The same measure, in the same setting: the value for A0A0X1KG71|Q8WX92 (UniProt Q8WX92) was 0.936 ± 0.024; that for “A0A0C4DGS5|Q08379 and related entries (UniProt Q08379)” was 1.01 ± 0.047.
As for “A0A087WZ97|A0A087WZK6|A0A087X2C2|Q5T7M9 (UniProt Q5T7M9)”, the NP40-soluble protein abundance was 1.02 ± 0.054.
Turning to A0A087WYB4|Q9UJZ1 (UniProt Q9UJZ1), the NP40-soluble protein abundance worked out at 1.05 ± 0.1.
On to “A0A087X0R0|F5H6S1 and related entries (UniProt O15550)”, for which the NP40-soluble protein abundance was 1.19 ± 0.1.
On the same count and under the same terms, the same measure for A0A0C4DGS1|P39656 (UniProt P39656): 0.873 ± 0.015.
The same measure, in the same setting: the same measure for “A0A087WXC5|E7ESZ7 and related entries (UniProt O95299)”: 1.01 ± 0.056; for A0A0B4J2A0|Q9UHJ6 (UniProt Q9UHJ6): 0.944 ± 0.067; for A0A0C4DGH6|A0JNW5 (UniProt A0JNW5): 0.946 ± 0.1.
The same measure, in the same setting: the value for “A0A0A0MQT4|Q5QP82 and related entries (UniProt Q5QP82)” was 1.06 ± 0.018; that for “A0A0G2JLB3|A0A0G2JNZ5|P04062 and related entries (UniProt P04062)” was 0.884 ± 0.069; that for UniProt A5PLN9 and related entries was 0.965 ± 0.014.
